Measurements published in PubChem BioAssay AID504327 (National Center for Advancing Translational Sciences (NCATS), 2011).
In all, about 390,000 compounds went through this assay and about 820 (0.21%) were called active. Inconclusive results, whose numbers are uncertain, are shown with a selection of clear calls. Calls come from the whole dose curve; as a rule, active = well fitted inhibition curve with a large enough effect; inconclusive = small, poorly fitted or top-dose-only effect, or another doubt; inactive = no such curve, though single readings can be large or run the other way. Potencies beside an inconclusive call are fits to weak or partial responses and may not hold up.

The chains behind the UniProt entries cited, without tags or fusion partners.
UniProt Q92830, whole entry, looked up: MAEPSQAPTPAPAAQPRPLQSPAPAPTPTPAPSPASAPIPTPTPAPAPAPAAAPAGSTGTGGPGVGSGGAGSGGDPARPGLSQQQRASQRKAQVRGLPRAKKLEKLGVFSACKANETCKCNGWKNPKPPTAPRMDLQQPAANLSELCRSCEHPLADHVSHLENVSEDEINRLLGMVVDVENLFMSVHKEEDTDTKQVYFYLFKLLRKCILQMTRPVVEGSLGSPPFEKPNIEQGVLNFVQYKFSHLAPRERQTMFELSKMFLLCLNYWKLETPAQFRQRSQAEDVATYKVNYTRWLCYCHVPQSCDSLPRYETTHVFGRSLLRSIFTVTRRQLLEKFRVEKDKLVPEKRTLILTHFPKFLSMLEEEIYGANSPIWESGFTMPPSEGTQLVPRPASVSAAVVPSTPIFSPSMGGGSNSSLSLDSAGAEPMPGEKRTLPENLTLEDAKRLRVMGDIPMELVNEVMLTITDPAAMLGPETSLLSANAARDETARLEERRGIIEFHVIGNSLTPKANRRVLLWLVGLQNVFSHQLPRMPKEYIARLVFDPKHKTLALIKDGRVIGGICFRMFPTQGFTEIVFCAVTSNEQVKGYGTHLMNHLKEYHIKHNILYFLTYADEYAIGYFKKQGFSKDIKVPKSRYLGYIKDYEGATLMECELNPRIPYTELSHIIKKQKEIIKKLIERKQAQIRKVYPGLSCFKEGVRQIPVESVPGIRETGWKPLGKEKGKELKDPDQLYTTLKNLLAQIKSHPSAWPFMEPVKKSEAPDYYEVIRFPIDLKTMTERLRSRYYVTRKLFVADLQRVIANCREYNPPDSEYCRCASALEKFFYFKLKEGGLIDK

Target: Histone acetyltransferase KAT2A (Homo sapiens) (UniProt Q92830)
Test: qHTS Assay for Inhibitors of GCN5L2
Conditions: GCN5L2 HAT assay, ThioGlo1 CoA-SH fluorescence; series mostly up to 58.9 µM
Outline: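 Titration-based screen in which CoA formation is detected via maleimide probe ThioGlo1 (50uM) turning fluorescent on thiol reaction; substrates H3(1-25) 75uM and acetyl-CoA 70uM, GCN5L2 20nM, 20 min incubation at room temperature.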
Potency is the fitted concentration of half-maximal effect.

Question: For CCN1CCN(Cc2c(O)c(Cl)cc3c(C)cc(=O)oc23)CC1, which Potency is on record?
Answer: inconclusive: 31.6 µM [inhibitor, single point]

Question: For COc1cn(-c2ccccc2)nc1C(=O)NCc1ccc(C)cc1, which Potency is on record?
Answer: inconclusive: 35.5 µM [inhibitor, single point]

Question: Which Potency does the source give for CCc1cc(=O)oc2c(C)c(O)c(CN(C)C)cc12 here?
Answer: inconclusive: 31.6 µM [inhibitor, partial curve]

Question: For CC(C)Nc1nc(Cl)nc(Nc2ccccc2)n1, which Potency is on record?
Answer: inconclusive: 39.8 µM [inhibitor, single point]

Question: For O=c1c(-c2ccccc2)nc2cnc(N3CCNCC3)nc2n1Cc1cccs1, which Potency is on record?
Answer: inactive

Question: With NOCC(=O)O as the compound, how does the Potency read?
Answer: inconclusive: 39.8 µM [inhibitor, single point]

Question: With CC1=NN(c2ccc(Cl)c(C(=O)O)c2)C(=O)/C1=C\c1ccc(-c2ccc(C(=O)O)cc2)o1 as the compound, how does the Potency read?
Answer: inconclusive: 25.1 µM [inhibitor, single point]

Question: For ON(Cc1c(F)cccc1Cl)Cc1c(F)cccc1Cl, which Potency is on record?
Answer: inconclusive: 4.47 µM [inhibitor, single point]

Question: CCN1CCN(c2cc(C)c3cc(NC(=S)N4CC(C)CC(C)C4)ccc3n2)CC1 (configuration not stated) was tested. Which Potency did it give?
Answer: inconclusive: 5.01 µM [inhibitor, single point]

Question: Which Potency does the source give for CCOCc1c(C(=O)OCC(=O)/C(C#N)=C(\C)N)oc2ccccc12 here?
Answer: inconclusive: 0.631 µM [inhibitor, single point]

Question: For Cc1ccc(N2C(N)=C(C#N)C3(C(=O)N(C)c4ccccc43)C3=C2CC(C)(C)CC3=O)cc1Cl (configuration not stated), which Potency is on record?
Answer: inactive

Question: With CCCNC(=O)OC[C@H]1O[C@H](CCO/N=C/[C@@H](OC)[C@H](C)/C=C/CC(=O)OC)C=C[C@@H]1Oc1ccc(OC)cc1 as the compound, how does the Potency read?
Answer: inactive

Question: Which Potency does the source give for CC1CCN(Cc2cc(=O)oc3cc(O)c(Cl)cc23)CC1 here?
Answer: inconclusive: 20 µM [inhibitor, partial curve]

Question: For CC1CN(C(=O)CCNC(=O)c2ccc(Cl)cc2)CC(C)O1 (configuration not stated), which Potency is on record?
Answer: inconclusive: 39.8 µM [inhibitor, partial curve]

Question: COCCn1c(=O)c(-c2cccc(C#N)c2)nc2cnc(Nc3ccccc3)nc21 was tested. Which Potency did it give?
Answer: inconclusive: 35.5 µM [inhibitor, single point]

Question: CN(C)c1ccc(/C=N/NC(=O)c2ccc3c(c2)OCCO3)cc1 was tested. Which Potency did it give?
Answer: inactive

Question: For COc1ccccc1C1C2=C(N=c3s/c(=C/c4cccc(OCC(=O)O)c4)c(=O)n31)c1ccccc1CC2 (configuration not stated), which Potency is on record?
Answer: inconclusive: 35.5 µM [inhibitor, single point]

Question: CCc1nnc(NC(=O)c2ccc(F)c(S(=O)(=O)N3CCCCC3)c2)s1 was tested. Which Potency did it give?
Answer: inconclusive: 39.8 µM [inhibitor, single point]

Question: Cc1cc(NC(=O)c2ccc(S(=O)(=O)N3CCc4ccccc43)cc2)no1 was tested. Which Potency did it give?
Answer: inconclusive: 39.8 µM [inhibitor, single point]

Question: O=C(CSCC(=O)Nc1cccc([N+](=O)[O-])c1)Nc1ccccc1 was tested. Which Potency did it give?
Answer: inconclusive: 11.2 µM [inhibitor, partial curve, poor fit]

Question: How did the Potency turn out when COc1ccc(-c2csc(NC(=O)C3CSC4(C)CCC(=O)N34)n2)cc1 (configuration not stated) was run?
Answer: inactive

Question: With COc1ccc(NC(=O)c2ccc3c(c2)c(C)c(C)n3Cc2ccc(F)cc2)c(OC)c1 as the compound, how does the Potency read?
Answer: inconclusive: 39.8 µM [inhibitor, single point]

Question: For O=[N+]([O-])c1cccc(Cl)c1NCCNc1ncc(C(F)(F)F)cc1Cl, which Potency is on record?
Answer: inactive

Question: How did the Potency turn out when CCN(CC)CCNC(=O)c1ccccn1 was run?
Answer: inconclusive: 7.08 µM [inhibitor, single point]

Question: Which Potency does the source give for CC1(C)Cc2c(C#N)c(N3CCN(C(=O)c4ccco4)CC3)nc(-c3ccco3)c2CS1 here?
Answer: inconclusive: 39.8 µM [inhibitor, single point]

Question: With CC(=O)NC(c1cccs1)c1cc(F)c2cccnc2c1O (configuration not stated) as the compound, how does the Potency read?
Answer: inconclusive: 28.2 µM [inhibitor, single point]

Question: With Cc1ccc(O)c(-c2cc(C(F)(F)F)[nH]n2)c1 as the compound, how does the Potency read?
Answer: inconclusive: 0.794 µM [inhibitor, single point]

Question: For CCCCN(Cc1ccco1)S(=O)(=O)c1c[nH]c(C(=O)OC)c1, which Potency is on record?
Answer: inconclusive: 39.8 µM [inhibitor, single point]

Question: How did the Potency turn out when CC(C)CN(CCCNC(=O)CN1C(=O)COc2ccc(S(=O)(=O)N3CCCCCC3)cc21)CC(C)C was run?
Answer: inactive

Question: O=C(O)c1cc(NC(=O)c2ccc3c(c2)C(=O)N(Cc2cccnc2)C3=O)cc(C(=O)O)c1 was tested. Which Potency did it give?
Answer: inconclusive: 3.98 µM [inhibitor, partial curve]

Question: How did the Potency turn out when O=C(Cn1nnc(-c2ccccc2F)n1)N1CCCCC1 was run?
Answer: inconclusive: 39.8 µM [inhibitor, single point]

Question: With Cc1ccc(S(=O)(=O)N2[C@@H](c3ccc(C(C)(C)C)cc3)C(C(=O)O)=CC[C@H]2c2ccc3c(c2)OCO3)cc1 as the compound, how does the Potency read?
Answer: inconclusive: 39.8 µM [inhibitor, single point]

Question: With CCN1CCN(Cc2c(O)ccc3c(=O)c(Oc4ccccc4Cl)c(C(F)(F)F)oc23)CC1 as the compound, how does the Potency read?
Answer: inactive

Question: How did the Potency turn out when Cn1c(CCN2CCN(c3ccccn3)CC2)nc2cc(NC(=O)COc3ccc(Cl)cc3)ccc21 was run?
Answer: inactive

Question: Which Potency does the source give for COc1ccc(S(=O)(=O)N2CCN(CC(=O)Nc3sccc3C(N)=O)CC2)cc1OC here?
Answer: inactive

Question: Cc1cc(OCC(=O)Nc2ccccc2C)no1 was tested. Which Potency did it give?
Answer: inconclusive: 39.8 µM [inhibitor, single point]

Question: Which Potency does the source give for C=CCn1c(O)c(N=NC(=S)Nc2ccccc2F)c2ccccc21 here?
Answer: inactive

Question: How did the Potency turn out when Cc1cc2nc3c(=O)[nH]c(=O)[nH]c3nc2c([N+](=O)[O-])c1N was run?
Answer: inconclusive: 39.8 µM [inhibitor, single point]

Question: Which Potency does the source give for O=C(Nc1nc2c(Cl)ccc(Cl)c2s1)C1CC1 here?
Answer: inconclusive: 7.08 µM [inhibitor, single point]

Question: For CC(/C=C1\SC(=S)N(c2ccc(C(=O)O)cc2)C1=O)=C\c1ccccc1, which Potency is on record?
Answer: inactive

Question: For CCc1ccc(/C=C2/SC(=S)N(CCC(=O)Nc3cccc(C(=O)O)c3)C2=O)cc1, which Potency is on record?
Answer: inconclusive: 7.08 µM [inhibitor, single point]

Question: With O=C(NNc1ccc([N+](=O)[O-])cc1[N+](=O)[O-])c1ccco1 as the compound, how does the Potency read?
Answer: inactive

Question: For O=C(Nc1cccc(F)c1)N1CC[C@@]2(CCCN(C(=O)c3csnn3)C2)C1, which Potency is on record?
Answer: inactive

Question: How did the Potency turn out when O=c1oc2c(CN3CCOCC3)c(O)ccc2cc1-c1ccc(Cl)cc1 was run?
Answer: inconclusive: 22.4 µM [inhibitor, partial curve]

Question: Cc1cccc(C)c1OCC(=O)N/N=C/c1ccc2c(c1)OCO2 was tested. Which Potency did it give?
Answer: active: 12.6 µM

Question: Which Potency does the source give for O=C(O)c1ccccc1/C=N/NC(=O)c1cc(-c2ccco2)nc2ccccc12 here?
Answer: inconclusive: 28.2 µM [inhibitor, partial curve, poor fit]

Question: CCOC(=O)C1=C(C)NC(C)=C(C(=O)OCC)C1C(=O)OCC(=O)N1CCC(C)CC1 was tested. Which Potency did it give?
Answer: inconclusive: 3.98 µM [inhibitor, partial curve, poor fit]

Question: COc1ccc(NC(=O)CN(c2ccc(OC)cc2)S(=O)(=O)c2c(C)nn(C)c2C)cc1 was tested. Which Potency did it give?
Answer: inconclusive: 0.794 µM [inhibitor, full curve, poor fit]

Question: How did the Potency turn out when COc1ccc(/C=C/C(=O)OCc2nc3ccccc3c(=O)[nH]2)c(OC)c1 was run?
Answer: inconclusive: 39.8 µM [inhibitor, single point]

Question: COc1ccc(OCc2n[nH]c(=S)n2N)cc1 was tested. Which Potency did it give?
Answer: inconclusive: 22.4 µM [inhibitor, single point]

Question: How did the Potency turn out when O=C(Cn1c(=O)oc2cc(S(=O)(=O)N3CCCC3)ccc21)Nc1ccc(C(F)(F)F)cc1 was run?
Answer: inconclusive: 22.4 µM [inhibitor, single point]

Question: CCc1nc2cccnc2n1-c1ccc(CC(=O)Nc2ccc(C)cc2)cc1 was tested. Which Potency did it give?
Answer: inconclusive: 7.08 µM [inhibitor, single point]

Question: For COc1ccc(C2CC(c3cccs3)=NN2C(=O)c2ccccc2)cc1OC (configuration not stated), which Potency is on record?
Answer: inactive

Question: With CCCCn1c(SCC(=O)Nc2ccc3c(c2)CCC3)nc2ccccc2c1=O as the compound, how does the Potency read?
Answer: inactive

Question: With CC(=O)Nc1ccccc1-c1nc2cc(C#N)c(C#N)cc2[nH]c1=O as the compound, how does the Potency read?
Answer: inactive

Question: How did the Potency turn out when Clc1cccc(-c2csc(-c3nc(-c4ccc(Br)s4)cs3)n2)c1 was run?
Answer: inactive

Question: CCc1ccc(NC(=O)CSc2nc(-c3ccccc3)c(C#N)c(=O)[nH]2)cc1 was tested. Which Potency did it give?
Answer: inconclusive: 22.4 µM [inhibitor, single point]

Question: CC(C)Cn1nc(NC(=O)c2ccco2)c2cc3ccccc3nc21 was tested. Which Potency did it give?
Answer: inconclusive: 7.08 µM [inhibitor, single point]

Question: CC(NCC(=O)Nc1cc(S(=O)(=O)N2CCOCC2)ccc1Cl)c1ccc(Cl)cc1Cl (configuration not stated) was tested. Which Potency did it give?
Answer: inconclusive: 39.8 µM [inhibitor, single point]

Question: CCc1nc(SCC(=O)NC2CCCC2)c2oc3ccccc3c2n1 was tested. Which Potency did it give?
Answer: inactive

Question: With O=S(=O)(NC(=NC1CCCCC1)c1ccccc1F)c1ccccc1 as the compound, how does the Potency read?
Answer: inactive

Question: How did the Potency turn out when CCN(CC)C(=O)CSc1nnc(-c2ccc(S(=O)(=O)NCc3ccccc3Cl)cc2)o1 was run?
Answer: inconclusive: 39.8 µM [inhibitor, single point]

Question: With Cc1c(NC(=O)CN2C(=O)NC(C)(c3ccccc3Cl)C2=O)c(=O)n(-c2ccccc2)n1C (configuration not stated) as the compound, how does the Potency read?
Answer: inconclusive: 20 µM [inhibitor, single point]

Question: Which Potency does the source give for CCN1C(C(=O)c2ccccc2)=C(OC(=O)C(C)C)c2ccccc2S1(=O)=O here?
Answer: inconclusive: 4.47 µM [inhibitor, single point]

Question: How did the Potency turn out when COc1ccc(-c2ccc3c(c2)S(=O)(=O)c2cccc(C(=O)NC4CC4)c2C3=O)cc1OC was run?
Answer: inconclusive: 22.4 µM [inhibitor, single point]

Question: CCCN1CCN(CC(=O)Nc2nc3ccccc3s2)CC1 was tested. Which Potency did it give?
Answer: inconclusive: 39.8 µM [inhibitor, partial curve]

Question: Which Potency does the source give for O=C(COc1nsnc1N1CCOCC1)Nc1cccc(Cl)c1 here?
Answer: inconclusive: 7.94 µM [inhibitor, full curve, poor fit]
